One series deals with IL-23R in human DB cells. Nature of the series: Schild analysis, Human DB Cell (pSTAT3). Type of series: cell-based. Conditions: 0.3-100 nM peptide.
For a further series, the system named is rat splenocytes. Nature of the series: Rat Splenocyte Assay (IL-17A). In kind it is cell-based. The conditions noted are these: IL-17A produced by activated splenocytes exposed to IL-23; read-out: Cell assay (nM) Rat (Spleen), IC50. The method, then:
A new assay developed was the rat splenocyte assay.
Briefly, splenocytes freshly isolated from rat were seeded in 96-well tissue culture plates in complete medium containing IL-10. […] Changes in IL-17A levels in the supernatants were detected using an ELISA.

Chains of the proteins cited; added tags and fusions are not shown. Residues count along the entry.
UniProt P22303, 32-614: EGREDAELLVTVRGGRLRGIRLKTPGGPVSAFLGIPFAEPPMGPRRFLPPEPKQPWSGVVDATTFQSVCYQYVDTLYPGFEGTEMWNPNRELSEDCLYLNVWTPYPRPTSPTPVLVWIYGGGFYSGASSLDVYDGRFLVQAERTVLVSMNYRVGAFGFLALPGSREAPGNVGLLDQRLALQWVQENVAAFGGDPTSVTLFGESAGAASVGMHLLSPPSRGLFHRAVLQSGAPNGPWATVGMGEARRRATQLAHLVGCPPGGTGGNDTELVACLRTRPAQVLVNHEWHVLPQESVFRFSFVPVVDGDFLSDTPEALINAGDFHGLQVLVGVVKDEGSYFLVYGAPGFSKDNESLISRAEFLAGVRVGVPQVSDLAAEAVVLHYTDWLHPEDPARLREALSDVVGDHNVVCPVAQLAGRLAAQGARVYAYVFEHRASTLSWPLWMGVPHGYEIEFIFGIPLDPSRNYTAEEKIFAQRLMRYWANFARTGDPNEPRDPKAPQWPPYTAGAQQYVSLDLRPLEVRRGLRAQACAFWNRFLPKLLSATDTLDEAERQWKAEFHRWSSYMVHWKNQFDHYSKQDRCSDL

The target in a further series is human IL-12Rβ1 (Homo sapiens, UniProt P42701). As to the kind of experiment: biochemical.
Another series deals with acetylcholinesterase (Homo sapiens, UniProt P22303).
Another series deals with Cyno IL-23R. Type of series: binding. Conditions: read-out: ELISA (nM) Cyno, IC50. For orientation: An ELISA detects its analyte on a solid surface through an enzyme-linked reagent.
Another series has as its target T1, human IL6R (Homo sapiens, UniProt P08887).
T1 sequence (P08887 20-468): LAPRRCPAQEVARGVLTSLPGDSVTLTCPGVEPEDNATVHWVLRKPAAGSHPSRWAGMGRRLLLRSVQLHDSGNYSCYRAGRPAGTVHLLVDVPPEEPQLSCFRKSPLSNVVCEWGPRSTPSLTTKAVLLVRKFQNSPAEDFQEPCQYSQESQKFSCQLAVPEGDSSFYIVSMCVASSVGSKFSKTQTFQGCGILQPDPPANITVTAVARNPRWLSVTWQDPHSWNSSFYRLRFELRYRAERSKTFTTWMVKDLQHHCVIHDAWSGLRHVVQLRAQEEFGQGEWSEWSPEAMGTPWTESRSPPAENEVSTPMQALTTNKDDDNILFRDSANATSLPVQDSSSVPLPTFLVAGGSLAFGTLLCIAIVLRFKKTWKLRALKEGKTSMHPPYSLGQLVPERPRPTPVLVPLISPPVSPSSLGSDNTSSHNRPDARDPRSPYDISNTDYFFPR
As to the kind of experiment: cell free ELISA for human IL6R (IL-6/IL-6R). Type of series: binding. Conditions: read-out: Selectivity (ELISA, nM) IL-6/IL-6R, IC50.

The structures appear in SMILES notation.

In the case of `CC(=O)NCCCC[C@H](NC(=O)C(C)(C)NC(=O)[C@H](Cc1ccc2ccccc2c1)NC(=O)[C@H](Cc1ccc(OCCN)cc1)NC(=O)[C@H]1NC(=O)[C@H](CCC(N)=O)NC(=O)[C@H](Cc2c[nH]c3ccccc23)NC(=O)[C@H]([C@@H](C)O)NC(=O)[C@H](CC(N)=O)NC(=O)[C@@H](NC(C)=O)C(C)(C)SSC1(C)C)C(=O)N[C@@H](CC(N)=O)C(=O)N[C@@H](CC(N)=O)C(N)=O` [SEQ ID NO: 1169, Ac-[Pen]-NTWQ-[Pen]-[Phe[4-(2-aminoethoxy)]-[2-Nal]-[Aib]-[Lys(Ac)]-NN-NH2], the Schild slope with IL-23R in human DB cells was determined as 0.91.

Turning to `CC(=O)N[C@@H]1CCSC[C@@H](C(=O)N[C@@H](Cc2ccc(OCCN)cc2)C(=O)N[C@@H](Cc2ccc3ccccc3c2)C(=O)NC2(C(=O)N[C@@H](CCC(=O)O)C(=O)N[C@@H](CC(N)=O)C(=O)N[C@@H](CC(N)=O)C(N)=O)CCOCC2)NC(=O)[C@H](CCC(N)=O)NC(=O)[C@H](Cc2c[nH]c3ccccc23)NC(=O)[C@H]([C@@H](C)O)NC(=O)[C@@H](CCC(N)=O)NC1=O` [SEQ ID NO: 980], the IC50 in the series with rat splenocytes was 11.5 nM; at human IL-12Rβ1, above 100000 nM; with Cyno IL-23R, 1.3 nM; at human IL6R, above 100000 nM. Further, at acetylcholinesterase, the “activity in the acetylcholinesterase assay” value is reported as 33%.

These data come from US10787490B2, “Peptide inhibitors of interleukin-23 receptor and their use to treat inflammatory diseases” (Protagonist Therapeutics, Inc., priority 2015, dated 2020).
